Some of the results follow.
The targets below were run with CC1Cc2ccccc2N1C(=O)C1CCCN(C1)C(=O)CCl (mixture of isomers) [TRIM25 ligand 11 (diastereomer mixture)] (assay: probe-labelled cysteine peptide fold change vs DMSO (competition) (log2 fold change); higher = less target engagement (more negative = stronger competition)). Details: 10 µM; THP-1; incubation time: 4 h.
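Further: competitive chemoproteomic profiling in live THP-1 cells with an iodoacetamide desthiobiotin (IA-DTB) probe, comparing probe-labelled peptide intensities in compound-treated cells against DMSO-treated controls.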

By UniProt entry, the sequences of proteins in these tests, tags left out. Where a name states a change or a piece, a line headed by the entry shows the natural chain unless it says otherwise.
UniProt Q8IW45: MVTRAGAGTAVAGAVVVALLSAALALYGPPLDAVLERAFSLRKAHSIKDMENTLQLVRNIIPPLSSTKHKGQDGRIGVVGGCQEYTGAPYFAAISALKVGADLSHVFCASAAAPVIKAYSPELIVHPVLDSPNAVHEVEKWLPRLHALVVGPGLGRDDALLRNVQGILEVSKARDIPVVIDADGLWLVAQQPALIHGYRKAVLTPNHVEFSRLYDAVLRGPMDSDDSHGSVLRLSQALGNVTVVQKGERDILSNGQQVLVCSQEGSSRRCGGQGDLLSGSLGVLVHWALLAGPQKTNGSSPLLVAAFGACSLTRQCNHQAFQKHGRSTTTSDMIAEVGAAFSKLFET
UniProt P54920: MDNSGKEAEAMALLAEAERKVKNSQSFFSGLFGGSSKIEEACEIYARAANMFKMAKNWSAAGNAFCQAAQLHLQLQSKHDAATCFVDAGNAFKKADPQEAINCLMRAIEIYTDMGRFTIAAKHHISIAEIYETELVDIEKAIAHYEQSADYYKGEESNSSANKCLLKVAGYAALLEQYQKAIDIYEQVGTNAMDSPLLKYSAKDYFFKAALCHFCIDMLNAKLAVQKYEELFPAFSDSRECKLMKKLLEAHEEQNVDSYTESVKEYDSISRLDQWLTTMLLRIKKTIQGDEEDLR
UniProt Q6IA69: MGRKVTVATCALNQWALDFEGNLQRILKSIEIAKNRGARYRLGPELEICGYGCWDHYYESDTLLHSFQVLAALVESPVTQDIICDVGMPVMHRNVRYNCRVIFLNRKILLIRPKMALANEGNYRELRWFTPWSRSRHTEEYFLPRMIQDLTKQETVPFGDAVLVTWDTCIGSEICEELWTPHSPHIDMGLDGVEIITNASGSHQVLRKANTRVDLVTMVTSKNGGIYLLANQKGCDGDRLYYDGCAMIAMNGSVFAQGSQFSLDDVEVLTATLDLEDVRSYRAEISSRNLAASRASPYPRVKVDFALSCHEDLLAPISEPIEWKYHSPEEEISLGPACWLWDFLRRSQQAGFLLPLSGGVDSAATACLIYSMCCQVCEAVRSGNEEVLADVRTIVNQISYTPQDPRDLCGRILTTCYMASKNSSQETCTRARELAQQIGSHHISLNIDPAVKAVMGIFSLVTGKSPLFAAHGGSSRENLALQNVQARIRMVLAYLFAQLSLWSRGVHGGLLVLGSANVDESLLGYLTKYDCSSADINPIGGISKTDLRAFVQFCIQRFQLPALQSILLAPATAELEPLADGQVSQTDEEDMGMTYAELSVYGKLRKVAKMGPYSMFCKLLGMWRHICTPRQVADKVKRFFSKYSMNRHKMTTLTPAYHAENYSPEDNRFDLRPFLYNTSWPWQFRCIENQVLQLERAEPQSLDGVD
UniProt P42695: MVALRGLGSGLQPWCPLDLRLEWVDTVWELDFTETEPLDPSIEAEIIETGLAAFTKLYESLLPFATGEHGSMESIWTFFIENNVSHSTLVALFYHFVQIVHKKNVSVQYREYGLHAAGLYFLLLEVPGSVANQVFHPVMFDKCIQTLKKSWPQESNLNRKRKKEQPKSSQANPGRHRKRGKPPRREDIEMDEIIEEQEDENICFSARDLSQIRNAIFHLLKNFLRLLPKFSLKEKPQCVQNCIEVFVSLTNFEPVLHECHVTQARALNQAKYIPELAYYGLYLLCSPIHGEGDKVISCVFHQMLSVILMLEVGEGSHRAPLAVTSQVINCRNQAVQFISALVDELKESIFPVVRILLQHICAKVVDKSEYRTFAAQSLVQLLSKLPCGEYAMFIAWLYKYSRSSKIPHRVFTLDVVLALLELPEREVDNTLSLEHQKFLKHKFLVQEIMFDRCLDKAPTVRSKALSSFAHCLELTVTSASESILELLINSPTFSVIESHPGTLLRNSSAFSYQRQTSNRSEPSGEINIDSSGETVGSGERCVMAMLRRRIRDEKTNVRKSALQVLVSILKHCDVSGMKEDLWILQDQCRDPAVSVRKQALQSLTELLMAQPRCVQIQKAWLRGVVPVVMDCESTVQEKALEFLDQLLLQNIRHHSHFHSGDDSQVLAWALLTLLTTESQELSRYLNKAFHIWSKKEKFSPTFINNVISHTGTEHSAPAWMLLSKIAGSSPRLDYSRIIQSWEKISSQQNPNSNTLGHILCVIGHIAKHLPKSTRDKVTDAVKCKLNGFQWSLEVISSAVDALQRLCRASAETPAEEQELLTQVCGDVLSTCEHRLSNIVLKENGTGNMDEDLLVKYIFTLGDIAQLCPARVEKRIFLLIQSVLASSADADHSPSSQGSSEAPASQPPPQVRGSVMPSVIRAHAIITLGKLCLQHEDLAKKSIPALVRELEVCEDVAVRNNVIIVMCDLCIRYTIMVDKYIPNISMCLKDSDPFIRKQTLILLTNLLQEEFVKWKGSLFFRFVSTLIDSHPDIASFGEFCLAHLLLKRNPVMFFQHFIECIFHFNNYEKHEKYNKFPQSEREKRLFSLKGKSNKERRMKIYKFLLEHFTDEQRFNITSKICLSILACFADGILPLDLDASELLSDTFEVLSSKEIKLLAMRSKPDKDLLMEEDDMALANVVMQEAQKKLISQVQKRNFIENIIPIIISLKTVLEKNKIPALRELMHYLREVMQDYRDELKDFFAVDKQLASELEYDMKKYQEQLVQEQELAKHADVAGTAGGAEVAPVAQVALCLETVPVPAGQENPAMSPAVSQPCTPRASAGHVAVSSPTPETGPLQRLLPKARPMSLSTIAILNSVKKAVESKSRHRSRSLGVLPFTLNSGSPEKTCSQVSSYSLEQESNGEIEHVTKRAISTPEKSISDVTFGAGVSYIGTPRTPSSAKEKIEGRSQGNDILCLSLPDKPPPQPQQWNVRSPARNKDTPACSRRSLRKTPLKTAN
UniProt Q86XI2: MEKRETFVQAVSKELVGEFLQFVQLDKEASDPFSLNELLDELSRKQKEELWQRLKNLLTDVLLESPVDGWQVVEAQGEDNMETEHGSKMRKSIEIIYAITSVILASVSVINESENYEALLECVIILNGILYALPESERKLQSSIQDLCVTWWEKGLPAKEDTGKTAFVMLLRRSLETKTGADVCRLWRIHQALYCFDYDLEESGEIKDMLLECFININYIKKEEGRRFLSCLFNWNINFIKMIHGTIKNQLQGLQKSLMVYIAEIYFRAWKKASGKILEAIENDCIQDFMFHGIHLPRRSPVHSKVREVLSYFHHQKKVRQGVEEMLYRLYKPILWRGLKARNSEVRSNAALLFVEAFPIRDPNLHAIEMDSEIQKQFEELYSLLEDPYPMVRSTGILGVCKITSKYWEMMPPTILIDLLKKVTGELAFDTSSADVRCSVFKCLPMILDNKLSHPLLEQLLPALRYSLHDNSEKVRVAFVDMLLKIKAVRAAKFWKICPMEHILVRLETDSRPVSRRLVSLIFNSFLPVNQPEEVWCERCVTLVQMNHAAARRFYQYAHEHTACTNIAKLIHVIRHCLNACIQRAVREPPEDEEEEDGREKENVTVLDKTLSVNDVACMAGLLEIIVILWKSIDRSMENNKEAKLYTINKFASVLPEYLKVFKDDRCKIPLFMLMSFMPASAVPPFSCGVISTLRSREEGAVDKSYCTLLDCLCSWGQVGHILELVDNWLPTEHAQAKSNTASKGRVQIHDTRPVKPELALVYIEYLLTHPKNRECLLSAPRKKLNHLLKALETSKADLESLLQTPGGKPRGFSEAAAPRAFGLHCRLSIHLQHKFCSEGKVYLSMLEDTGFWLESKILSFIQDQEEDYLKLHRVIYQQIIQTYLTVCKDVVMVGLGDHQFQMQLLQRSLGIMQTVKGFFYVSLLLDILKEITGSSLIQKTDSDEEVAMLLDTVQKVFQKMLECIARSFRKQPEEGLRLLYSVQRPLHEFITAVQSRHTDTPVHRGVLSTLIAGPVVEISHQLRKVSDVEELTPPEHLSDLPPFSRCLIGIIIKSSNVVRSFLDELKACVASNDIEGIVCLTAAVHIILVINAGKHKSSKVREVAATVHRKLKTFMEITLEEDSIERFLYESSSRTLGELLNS
UniProt Q8TBE9: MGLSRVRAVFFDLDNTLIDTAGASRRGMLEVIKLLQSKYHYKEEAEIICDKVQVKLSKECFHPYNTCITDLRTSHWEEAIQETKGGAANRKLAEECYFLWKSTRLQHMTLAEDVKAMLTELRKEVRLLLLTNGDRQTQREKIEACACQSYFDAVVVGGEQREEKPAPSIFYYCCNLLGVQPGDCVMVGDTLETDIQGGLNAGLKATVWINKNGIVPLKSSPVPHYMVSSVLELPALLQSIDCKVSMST
UniProt Q15003, whole entry, looked up: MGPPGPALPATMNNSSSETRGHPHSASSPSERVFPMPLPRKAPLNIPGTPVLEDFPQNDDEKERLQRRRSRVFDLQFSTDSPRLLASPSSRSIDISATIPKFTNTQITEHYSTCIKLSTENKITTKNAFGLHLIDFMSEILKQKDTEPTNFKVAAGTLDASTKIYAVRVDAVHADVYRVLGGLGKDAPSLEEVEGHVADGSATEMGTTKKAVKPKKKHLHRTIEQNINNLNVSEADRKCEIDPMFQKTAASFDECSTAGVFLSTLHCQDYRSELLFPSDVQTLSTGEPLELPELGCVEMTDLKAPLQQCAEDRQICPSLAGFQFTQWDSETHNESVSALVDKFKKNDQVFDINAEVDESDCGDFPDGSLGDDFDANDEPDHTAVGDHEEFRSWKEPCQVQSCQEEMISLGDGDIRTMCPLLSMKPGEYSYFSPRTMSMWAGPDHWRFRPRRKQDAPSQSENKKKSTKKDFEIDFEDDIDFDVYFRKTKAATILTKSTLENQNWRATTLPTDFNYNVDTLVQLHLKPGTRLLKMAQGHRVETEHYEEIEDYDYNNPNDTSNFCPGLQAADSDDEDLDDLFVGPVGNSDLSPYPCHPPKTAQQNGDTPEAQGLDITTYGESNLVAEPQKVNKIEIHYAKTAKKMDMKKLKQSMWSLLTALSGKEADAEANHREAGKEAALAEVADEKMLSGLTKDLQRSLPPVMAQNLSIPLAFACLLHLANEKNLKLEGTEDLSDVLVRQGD
UniProt B0I1T2: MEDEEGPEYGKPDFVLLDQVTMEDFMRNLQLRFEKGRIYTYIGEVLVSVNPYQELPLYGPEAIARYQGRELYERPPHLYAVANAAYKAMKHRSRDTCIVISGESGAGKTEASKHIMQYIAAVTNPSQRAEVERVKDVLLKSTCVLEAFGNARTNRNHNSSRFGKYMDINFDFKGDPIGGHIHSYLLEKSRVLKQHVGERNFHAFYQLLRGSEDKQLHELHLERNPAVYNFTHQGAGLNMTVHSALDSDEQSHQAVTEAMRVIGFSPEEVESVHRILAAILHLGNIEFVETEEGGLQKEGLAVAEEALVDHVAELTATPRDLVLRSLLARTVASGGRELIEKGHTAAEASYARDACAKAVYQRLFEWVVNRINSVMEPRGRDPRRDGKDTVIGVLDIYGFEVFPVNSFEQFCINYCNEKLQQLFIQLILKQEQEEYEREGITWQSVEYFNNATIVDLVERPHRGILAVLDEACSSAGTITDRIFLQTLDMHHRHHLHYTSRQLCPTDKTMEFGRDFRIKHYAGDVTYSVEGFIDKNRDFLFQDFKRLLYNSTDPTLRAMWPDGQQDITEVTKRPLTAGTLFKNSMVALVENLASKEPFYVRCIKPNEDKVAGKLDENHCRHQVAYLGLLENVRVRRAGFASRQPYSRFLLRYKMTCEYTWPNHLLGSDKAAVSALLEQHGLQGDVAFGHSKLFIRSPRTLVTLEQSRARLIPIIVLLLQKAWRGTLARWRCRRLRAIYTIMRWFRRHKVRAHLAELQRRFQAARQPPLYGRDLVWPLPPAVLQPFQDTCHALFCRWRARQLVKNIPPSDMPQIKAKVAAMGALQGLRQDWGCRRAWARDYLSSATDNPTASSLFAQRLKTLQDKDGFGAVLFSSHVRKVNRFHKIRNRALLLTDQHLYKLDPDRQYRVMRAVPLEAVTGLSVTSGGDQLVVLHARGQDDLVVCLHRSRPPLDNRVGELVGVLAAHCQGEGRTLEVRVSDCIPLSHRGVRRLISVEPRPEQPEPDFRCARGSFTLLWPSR
UniProt Q6XQN6: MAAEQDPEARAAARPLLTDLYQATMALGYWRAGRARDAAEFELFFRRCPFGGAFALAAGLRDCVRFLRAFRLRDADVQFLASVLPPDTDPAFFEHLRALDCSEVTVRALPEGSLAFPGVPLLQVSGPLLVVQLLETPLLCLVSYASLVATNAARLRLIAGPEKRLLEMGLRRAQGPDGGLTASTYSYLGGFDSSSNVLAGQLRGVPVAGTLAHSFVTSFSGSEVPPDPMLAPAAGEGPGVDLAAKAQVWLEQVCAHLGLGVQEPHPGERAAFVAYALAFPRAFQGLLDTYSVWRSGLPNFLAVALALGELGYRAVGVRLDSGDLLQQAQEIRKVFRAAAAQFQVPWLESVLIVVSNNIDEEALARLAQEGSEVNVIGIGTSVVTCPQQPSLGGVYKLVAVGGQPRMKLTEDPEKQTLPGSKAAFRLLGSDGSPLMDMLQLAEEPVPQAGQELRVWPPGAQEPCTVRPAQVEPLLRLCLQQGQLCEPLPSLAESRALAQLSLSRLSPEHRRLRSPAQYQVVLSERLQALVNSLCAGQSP

Row | Target | probe-labelled cysteine peptide fold change
1 | NAXD_Q8IW45_108_VGADLSHVFCASAAAPVIK (UniProt Q8IW45) | 0.092
2 | NAPA_P54920_84_HDAATCFVDAGNAFKK (UniProt P54920) | -0.123
3 | NADSYN1_Q6IA69_627_HICTPR (UniProt Q6IA69) | -0.193
4 | NCAPD3_P42695_143_CIQTLK (UniProt P42695) | 0.0922
5 | NCAPG2_Q86XI2_776_NRECLLSAPR (UniProt Q86XI2) | -0.0525
6 | NANP_Q8TBE9_49_EEAEIICDK (UniProt Q8TBE9) | 0.0923
7 | NCAPH_Q15003_114_FTNTQITEHYSTCIK (UniProt Q15003) | 0.199
8 | MYO1G_B0I1T2_979_VSDCIPLSHR (UniProt B0I1T2) | 0.132
9 | NAPRT_Q6XQN6_101_ALDCSEVTVR (UniProt Q6XQN6) | 0.0227

Source: the supplement of paper PMC12067093, “Discovery and optimisation of a covalent ligand for TRIM25 and its application to targeted protein ubiquitination” (Chemical Science, 2025)
